# In the supplement of paper PMC8728848:
# The other results are listed elsewhere or left out.
# B1: PX14343G-pdi-535-24-535 (Parabacteroides distasonis) (protein)
# chain: LDTVPKDQLAPSTTWQTEADAKGFIVGCYKDLLDGNTLLYLDCGSDIGYNNFPWEGFRPWGDGSLSSSNPGQILYDYKSIRKANTFLENVDKVTFSSDAVKANYVAQAKAIRAYKYFLMNWWYGGVPIISSYSSADEAKVERNTEQEVRDYIAKDLDEALAGIAEAPEARGYIAKGAVLAIKMREALYYGDWQKAKDAAKAIIDLKQYELDPDYTNLFKVSGVDSKEIILADQNIETLDGLGTIGQMYNNVDQGWSSIVPTQNLVDMYEMSDGLTKEESKTYDAKHPFANRDPRMAMTILYPGRDWRGDVLNTLDEKLQDGTVNKNFPTYTDNASKSALTWAKYLDPMDQYGDVWSSGACPIVFRYAEVLLTYAEAANELSGPSDEIYGYLNQIRQRVGMGEVDKAKYGTKDKLRELIRRERTVELAGEGLRRADIVRWQEDGKMLAEKVMNGDLLRVTGTINYGESEPTKRAEITGTAVIETRQFSSRNRYLPIPQTSMDKNPNLKQNPGY
# How the values were obtained:
# Assay in all cases: glycan array binding signal (z-score within array); higher = stronger binding
# Details in all cases: glycan notation: IUPAC condensed, linker removed
# [1] = biological target: Fuc(a1-3)[Gal(b1-4)]GlcNAc(b1-3)Gal(b1-4)[Fuc(a1-3)]GlcNAc
# Procedure, shortened: (§1)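 From the Consortium for Functional Glycomics database, 3228 arrays were curated, keeping only those whose protein sequence was available. Binding is given as a within-array Z-score averaged across arrays sharing a protein sequence and across linkers. Negative Z-scores can be read as non-binding.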
# [2] = biological target: Fuc(a1-3)[Gal(b1-4)]GlcNAc(b1-3)Gal(b1-4)[Fuc(a1-3)]GlcNAc(b1-3)Gal(b1-4)[Fuc(a1-3)]GlcNAc
# Procedure, shortened: as §1
# [3] = biological target: Fuc(a1-3)[Gal(b1-4)]GlcNAc(b1-3)GalNAc
# Procedure, shortened: as §1
# [4] = biological target: Fuc(a1-3)[Gal(b1-4)]GlcNAc(b1-6)GalNAc
# Procedure, shortened: as §1
# [5] = biological target: Fuc(a1-3)[Gal(b1-4)]GlcNAc(b1-6)[Gal(b1-3)GlcNAc(b1-3)]Gal(b1-4)Glc
# Procedure, shortened: as §1
# [6] = biological target: Fuc(a1-3)[Gal(b1-4)]GlcNAc6S
# Procedure, shortened: as §1
# [7] = biological target: Fuc(a1-3)[Gal3S(b1-4)]Glc
# Procedure, shortened: as §1
# [8] = biological target: Fuc(a1-3)[Gal3S(b1-4)]GlcNAc
# Procedure, shortened: as §1
# [9] = biological target: Fuc(a1-3)[Gal3S(b1-4)]GlcNAc6S
# Procedure, shortened: as §1
# [10] = biological target: Fuc(a1-3)[GalNAc(b1-4)]GlcNAc
# Procedure, shortened: as §1
# [11] = biological target: Fuc(a1-3)[GalNAc(b1-4)]GlcNAc6S
# Procedure, shortened: as §1
# Fuc(a1-4)GlcNAc = biological target: Fuc(a1-4)GlcNAc
# Procedure, shortened: as §1
# Fuc(b1-3)GlcNAc = biological target: Fuc(b1-3)GlcNAc
# Procedure, shortened: as §1
# Gal(a1-2)Gal = biological target: Gal(a1-2)Gal
# Procedure, shortened: as §1
# Gal(a1-3)Gal = biological target: Gal(a1-3)Gal
# Procedure, shortened: as §1
# Gal(a1-3)Gal(b1-3)GlcNAc = biological target: Gal(a1-3)Gal(b1-3)GlcNAc
# Procedure, shortened: as §1
# [12] = biological target: Gal(a1-3)Gal(b1-3)GlcNAc(b1-2)Man
# Procedure, shortened: as §1
# [13] = biological target: Gal(a1-3)Gal(b1-3)GlcNAc(b1-2)Man(a1-3)[Gal(a1-3)Gal(b1-3)GlcNAc(b1-2)Man(a1-6)]Man(b1-4)GlcNAc(b1-4)GlcNAc
# Procedure, shortened: as §1
# [14] = biological target: Gal(a1-3)Gal(b1-3)GlcNAc(b1-3)GalNAc
# Procedure, shortened: as §1
# [15] = biological target: Gal(a1-3)Gal(b1-3)GlcNAc(b1-6)GalNAc
# Procedure, shortened: as §1
# [16] = biological target: Gal(a1-3)Gal(b1-3)[Fuc(a1-4)]GlcNAc(b1-2)Man(a1-3)[Gal(a1-3)Gal(b1-3)[Fuc(a1-4)]GlcNAc(b1-2)Man(a1-6)]Man(b1-4)GlcNAc(b1-4)GlcNAc
# Procedure, shortened: as §1
# Gal(a1-3)Gal(b1-4)Glc = biological target: Gal(a1-3)Gal(b1-4)Glc
# Procedure, shortened: as §1
# Gal(a1-3)Gal(b1-4)GlcNAc = biological target: Gal(a1-3)Gal(b1-4)GlcNAc
# Procedure, shortened: as §1
# [17] = biological target: Gal(a1-3)Gal(b1-4)GlcNAc(b1-2)Man
# Procedure, shortened: as §1
# [18] = biological target: Gal(a1-3)Gal(b1-4)GlcNAc(b1-2)Man(a1-3)[Gal(a1-3)Gal(b1-4)GlcNAc(b1-2)Man(a1-6)]Man(b1-4)GlcNAc(b1-4)GlcNAc
# Procedure, shortened: as §1
# [19] = biological target: Gal(a1-3)Gal(b1-4)GlcNAc(b1-3)GalNAc
# Procedure, shortened: as §1
# [20] = biological target: Gal(a1-3)Gal(b1-4)GlcNAc(b1-6)GalNAc
# Procedure, shortened: as §1
# [21] = biological target: Gal(a1-3)Gal(b1-4)[Fuc(a1-3)]GlcNAc
# Procedure, shortened: as §1
# [22] = biological target: Gal(a1-3)Gal(b1-4)[Fuc(a1-3)]GlcNAc(b1-2)Man(a1-3)[Gal(a1-3)Gal(b1-4)[Fuc(a1-3)]GlcNAc(b1-2)Man(a1-6)]Man(b1-4)GlcNAc(b1-4)GlcNAc
# Procedure, shortened: as §1
# Gal(a1-3)GalNAc = biological target: Gal(a1-3)GalNAc
# Procedure, shortened: as §1
# [23] = biological target: Gal(a1-3)[Gal(a1-4)]Gal(b1-4)GlcNAc
# Procedure, shortened: as §1
# [24] = biological target: Gal(a1-4)Gal(b1-3)GlcNAc(b1-2)Man(a1-3)[Gal(a1-4)Gal(b1-3)GlcNAc(b1-2)Man(a1-6)]Man(b1-4)GlcNAc(b1-4)GlcNAc
# Procedure, shortened: as §1
# Gal(a1-4)Gal(b1-4)Glc = biological target: Gal(a1-4)Gal(b1-4)Glc
# Procedure, shortened: as §1
# Gal(a1-4)Gal(b1-4)GlcNAc = biological target: Gal(a1-4)Gal(b1-4)GlcNAc
# Procedure, shortened: as §1
# [25] = biological target: Gal(a1-4)Gal(b1-4)GlcNAc(b1-2)Man(a1-3)[Gal(a1-4)Gal(b1-4)GlcNAc(b1-2)Man(a1-6)]Man(b1-4)GlcNAc(b1-4)GlcNAc
# Procedure, shortened: as §1
# [26] = biological target: Gal(a1-4)Gal(b1-4)GlcNAc(b1-3)Gal(b1-4)Glc
# Procedure, shortened: as §1
# Gal(a1-4)GlcNAc = biological target: Gal(a1-4)GlcNAc
# Procedure, shortened: as §1
# Gal(a1-6)Glc = biological target: Gal(a1-6)Glc
# Procedure, shortened: as §1
binder,measurement,setting,value
B1,glycan array binding signal (z-score),[1],0.082
same,glycan array binding signal (z-score),[2],-0.057
same,glycan array binding signal (z-score),[3],-0.56
same,glycan array binding signal (z-score),[4],-0.26
same,glycan array binding signal (z-score),[5],-0.628
same,glycan array binding signal (z-score),[6],1.22
same,glycan array binding signal (z-score),[7],-0.435
same,glycan array binding signal (z-score),[8],-0.249
same,glycan array binding signal (z-score),[9],0.175
same,glycan array binding signal (z-score),[10],0.469
same,glycan array binding signal (z-score),[11],-0.41
same,glycan array binding signal (z-score),Fuc(a1-4)GlcNAc,-0.441
same,glycan array binding signal (z-score),Fuc(b1-3)GlcNAc,0.803
same,glycan array binding signal (z-score),Gal(a1-2)Gal,-1.08
same,glycan array binding signal (z-score),Gal(a1-3)Gal,-0.161
same,glycan array binding signal (z-score),Gal(a1-3)Gal(b1-3)GlcNAc,1.53
same,glycan array binding signal (z-score),[12],-0.089
same,glycan array binding signal (z-score),[13],-0.094
same,glycan array binding signal (z-score),[14],-0.685
same,glycan array binding signal (z-score),[15],-0.474
same,glycan array binding signal (z-score),[16],0.247
same,glycan array binding signal (z-score),Gal(a1-3)Gal(b1-4)Glc,-0.347
same,glycan array binding signal (z-score),Gal(a1-3)Gal(b1-4)GlcNAc,-0.147
same,glycan array binding signal (z-score),[17],-0.912
same,glycan array binding signal (z-score),[18],0.366
same,glycan array binding signal (z-score),[19],0.519
same,glycan array binding signal (z-score),[20],-0.158
same,glycan array binding signal (z-score),[21],-0.222
same,glycan array binding signal (z-score),[22],0.64
same,glycan array binding signal (z-score),Gal(a1-3)GalNAc,0.506
same,glycan array binding signal (z-score),[23],2.67
same,glycan array binding signal (z-score),[24],-0.566
same,glycan array binding signal (z-score),Gal(a1-4)Gal(b1-4)Glc,1.42
same,glycan array binding signal (z-score),Gal(a1-4)Gal(b1-4)GlcNAc,0.613
same,glycan array binding signal (z-score),[25],0.47
same,glycan array binding signal (z-score),[26],-0.746
same,glycan array binding signal (z-score),Gal(a1-4)GlcNAc,-0.638
same,glycan array binding signal (z-score),Gal(a1-6)Glc,-0.876

# Eight entries from above, as tab-separated lines.
binder	measurement	setting	value
B1	glycan array binding signal (z-score)	[1]	0.082
same	glycan array binding signal (z-score)	[2]	-0.057
same	glycan array binding signal (z-score)	[3]	-0.56
same	glycan array binding signal (z-score)	[4]	-0.26
same	glycan array binding signal (z-score)	[5]	-0.628
same	glycan array binding signal (z-score)	[6]	1.22
same	glycan array binding signal (z-score)	[7]	-0.435
same	glycan array binding signal (z-score)	[8]	-0.249
